In publication PMC11743126:
No constants are given. Whether binding was seen depends on the method and setting. Binding seen in cells or lysates may run through a third protein. Here binding means that the protein was enriched with, or labelled near, the bait; the list need not be complete.

Chains of the proteins cited; added tags and fusions are not shown.
UniProt P46937: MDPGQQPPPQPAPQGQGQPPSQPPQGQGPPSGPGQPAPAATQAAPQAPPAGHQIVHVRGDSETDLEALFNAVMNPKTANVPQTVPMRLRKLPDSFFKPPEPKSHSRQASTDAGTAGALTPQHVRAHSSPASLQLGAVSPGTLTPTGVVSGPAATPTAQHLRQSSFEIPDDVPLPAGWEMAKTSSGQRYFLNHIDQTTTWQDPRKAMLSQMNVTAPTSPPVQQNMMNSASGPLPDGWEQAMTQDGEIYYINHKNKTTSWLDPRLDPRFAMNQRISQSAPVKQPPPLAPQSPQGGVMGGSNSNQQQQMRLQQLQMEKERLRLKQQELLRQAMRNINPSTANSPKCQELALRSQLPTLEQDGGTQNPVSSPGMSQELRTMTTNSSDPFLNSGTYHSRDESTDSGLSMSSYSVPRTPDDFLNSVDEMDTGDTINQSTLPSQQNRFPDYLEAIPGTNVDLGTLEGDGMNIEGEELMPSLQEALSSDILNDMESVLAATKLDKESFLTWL

Molecular target: Flag-YAP1 (UniProt P46937)
Experiment: affinity purification with mass spectrometry; tandem affinity purification of Flag-YAP1 from A2780 cells; mass spectrometry of the YAP1 immunoprecipitates

B1: DUB3 (USP17L2), endogenous (enzyme, UniProt Q6R6M4 1-530)
chain: MEDDSLYLGGEWQFNHFSKLTSSRPDAAFAEIQRTSLPEKSPLSSEARVDLCDDLAPVARQLAPRKKLPLSSRRPAAVGAGLQNMGNTCYENASLQCLTYTPPLANYMLSREHSQTCQRPKCCMLCTMQAHITWALHSPGHVIQPSQALAAGFHRGKQEDAHEFLMFTVDAMKKACLPGHKQVDHHSKDTTLIHQIFGGCWRSQIKCLHCHGISDTFDPYLDIALDIQAAQSVKQALEQLVKPEELNGENAYHCGLCLQRAPASKTLTLHTSAKVLILVLKRFSDVTGNKLAKNVQYPECLDMQPYMSQQNTGPLVYVLYAVLVHAGWSCHDGHYFSYVKAQEGQWYKMDDAKVTACSITSVLSQQAYVLFYIQKSEWERHSESVSRGREPRALGAEDTDRRATQGELKRDHPCLQAPELDERLVERATQESTLDHWKFPQEQNKTKPEFNVRKVEGTLPPNVLVIHQSKYKCGMKNHHPEQQSSLLNLSSTTRTDQESVNTGTLASLQGRTRRSKGKNKHSKRALLVCQ
binding: binds
